For experiment [1], the target named is T1, GFP-FREE1^S530A (Arabidopsis thaliana) (UniProt Q9ASS2).
T1 sequence: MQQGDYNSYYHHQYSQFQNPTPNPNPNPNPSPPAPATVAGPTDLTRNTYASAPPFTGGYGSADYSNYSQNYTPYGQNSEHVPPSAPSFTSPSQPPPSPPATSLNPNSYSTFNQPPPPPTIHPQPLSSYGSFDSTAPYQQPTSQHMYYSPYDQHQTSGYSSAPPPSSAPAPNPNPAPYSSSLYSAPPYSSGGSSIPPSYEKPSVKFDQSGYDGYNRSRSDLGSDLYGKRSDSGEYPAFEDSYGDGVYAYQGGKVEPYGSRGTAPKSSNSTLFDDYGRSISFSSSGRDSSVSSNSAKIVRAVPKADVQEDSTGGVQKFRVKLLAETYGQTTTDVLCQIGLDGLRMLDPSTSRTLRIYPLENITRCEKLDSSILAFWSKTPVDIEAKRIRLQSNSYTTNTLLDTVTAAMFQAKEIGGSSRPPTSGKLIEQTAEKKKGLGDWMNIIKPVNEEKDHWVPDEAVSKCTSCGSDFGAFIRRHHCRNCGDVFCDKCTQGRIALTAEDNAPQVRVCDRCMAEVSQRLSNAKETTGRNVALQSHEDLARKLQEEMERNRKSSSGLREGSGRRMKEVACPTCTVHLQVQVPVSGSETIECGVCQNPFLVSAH
Description: co-IP; GFP-Trap magnetic beads, 2-4 h at 4 °C, on extracts of transgenic plants expressing the GFP fusion; endogenous partner found by immunoblot; IP buffer 50 mM Tris-HCl pH 7.4, 150 mM NaCl, 1 mM MgCl2, 20% glycerol, 0.2% NP-40; some experiments after nitrogen starvation for at least 18 h.

Experiment [2] addresses T2, GFP-FREE1 (transgenic Arabidopsis plants) (Arabidopsis thaliana) (UniProt Q9ASS2).
T2 sequence: T1 sequence with A530S
The experiment is described as above.

The target in experiment [3] is T3, GFP-FREE1^S530AS533A (Arabidopsis thaliana) (UniProt Q9ASS2).
T3 sequence: T1 sequence with S533A
The description is as above.

In experiment [4] the target is T4, BD-FREE1^231-601 (Arabidopsis thaliana) (UniProt Q9ASS2).
T4 sequence: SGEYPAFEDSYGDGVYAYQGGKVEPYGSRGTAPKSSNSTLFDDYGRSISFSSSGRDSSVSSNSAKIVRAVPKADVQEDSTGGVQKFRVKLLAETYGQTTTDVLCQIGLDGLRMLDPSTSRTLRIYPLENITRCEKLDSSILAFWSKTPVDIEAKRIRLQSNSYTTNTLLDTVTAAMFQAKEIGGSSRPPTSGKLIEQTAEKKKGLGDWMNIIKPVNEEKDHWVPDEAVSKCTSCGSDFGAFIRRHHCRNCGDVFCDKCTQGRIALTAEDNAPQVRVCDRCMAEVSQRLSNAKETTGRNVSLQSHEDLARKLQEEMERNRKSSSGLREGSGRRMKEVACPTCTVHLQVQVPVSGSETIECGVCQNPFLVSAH
In words: two-hybrid; pGBKT7 (BD-FREE1 231-601) and pGADT7 co-transformed into yeast AH109; selection on SD lacking His, Trp, Leu with 3AT, or His, Trp, Leu and Ade.

Experiment [5] has as its target T5, CFP-FREE1 (Arabidopsis thaliana) (UniProt Q9ASS2).
T5 sequence: T1 sequence with A530S
Description: FRET or BRET; acceptor photobleaching FRET of CFP and YFP fusions in Arabidopsis protoplasts cultured 24 h, Leica SP8.

In experiment [6] the target is T6, FREE1^W438AI441A (yeast two-hybrid of Supplementary Fig. 16c) (Arabidopsis thaliana) (UniProt Q9ASS2).
T6 sequence: T4 sequence with W208A, I211A
In words: two-hybrid; pGBKT7 (BD-FREE1 231-601) and pGADT7 co-transformed into yeast AH109; selection on SD lacking His, Trp, Leu with 3AT, or His, Trp, Leu and Ade.

Where a chain is given by its changes, count along the chain named. Results are given in words; binding and its absence hold for the method and conditions named. For part of these data: Binding calls can cover weak binding; strength is not graded here. For part of these data: Sequences can lack the tags named with a protein. For part of these data: In cells and extracts the contact can be indirect.

For the substance “ATG5-ATG12 conjugate (endogenous) (complex)”, the values for the binding entry in experiment [1] and in experiment [2] were “no binding” and “binds”, respectively. In the case of ATG8 (endogenous, isoform not told), the results for the binding entry in experiment [1], in experiment [2] and in experiment [3] were “no binding”, “binds” and “no binding”, respectively. As for “ATG12 (yeast two-hybrid fusion) (Arabidopsis thaliana)”, the binding result in experiment [4] is “no binding”. As to “ATG12 (FRET fusion) (Arabidopsis thaliana)”, the binding result in experiment [5] was “no binding”. Take “ATG8 (yeast two-hybrid of Supplementary Fig. 16c, isoform not told) (Arabidopsis thaliana)”: the binding entry in experiment [6] was “no binding”; in experiment [4], “binds”.

Values taken from paper PMC10063618.
